Experimental data from publication doi:10.1101/2025.02.12.637848.
Numbering of substitutions follows the chain as printed. Names and notes keep the numbering of the source. No constants are given. Whether binding was seen depends on the method and setting. Binding seen in cells or lysates may run through a third protein. Some results given as binding are weak or reduced against the parent protein; the word gives no strength. Sequences can lack the tags named with a protein. One block for each binder: values may come before it.

Tests used:
Test in all cases: co-IP
[1] = target: T1, Pex28-13xMyc (Saccharomyces cerevisiae) (UniProt P38848)
T1 sequence: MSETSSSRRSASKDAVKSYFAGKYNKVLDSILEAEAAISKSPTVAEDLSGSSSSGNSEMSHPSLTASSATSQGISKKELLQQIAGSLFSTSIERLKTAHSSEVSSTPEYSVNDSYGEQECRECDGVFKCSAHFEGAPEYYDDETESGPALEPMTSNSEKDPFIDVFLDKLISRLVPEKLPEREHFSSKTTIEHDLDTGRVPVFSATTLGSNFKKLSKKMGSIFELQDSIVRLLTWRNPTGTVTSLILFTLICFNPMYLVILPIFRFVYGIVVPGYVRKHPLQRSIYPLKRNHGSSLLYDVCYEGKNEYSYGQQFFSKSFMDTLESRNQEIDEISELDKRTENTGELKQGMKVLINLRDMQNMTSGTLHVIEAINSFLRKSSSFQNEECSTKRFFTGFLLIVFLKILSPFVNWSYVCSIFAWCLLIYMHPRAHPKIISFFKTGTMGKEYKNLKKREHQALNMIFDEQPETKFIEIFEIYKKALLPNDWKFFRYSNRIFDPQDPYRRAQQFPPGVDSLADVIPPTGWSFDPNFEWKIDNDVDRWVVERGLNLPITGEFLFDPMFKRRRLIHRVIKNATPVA

[2] = target: T2, Pex29-V5 (Saccharomyces cerevisiae) (UniProt Q03370)
T2 sequence: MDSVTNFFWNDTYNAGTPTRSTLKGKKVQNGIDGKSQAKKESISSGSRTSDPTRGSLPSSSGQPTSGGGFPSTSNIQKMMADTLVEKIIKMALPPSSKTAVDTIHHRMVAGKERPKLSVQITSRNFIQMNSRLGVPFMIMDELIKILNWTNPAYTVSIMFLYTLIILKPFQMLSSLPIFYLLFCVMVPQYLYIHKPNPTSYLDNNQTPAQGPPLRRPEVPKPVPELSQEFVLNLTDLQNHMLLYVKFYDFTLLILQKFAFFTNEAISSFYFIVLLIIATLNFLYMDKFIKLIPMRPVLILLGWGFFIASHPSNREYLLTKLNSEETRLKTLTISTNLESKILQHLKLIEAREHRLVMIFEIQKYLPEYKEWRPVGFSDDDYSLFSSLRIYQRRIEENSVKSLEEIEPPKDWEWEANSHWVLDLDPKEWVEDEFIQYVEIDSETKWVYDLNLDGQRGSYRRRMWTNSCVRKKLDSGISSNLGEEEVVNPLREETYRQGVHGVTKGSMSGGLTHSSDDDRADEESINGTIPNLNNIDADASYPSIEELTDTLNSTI

[3] = target: T3, Pex32-3xHA (Saccharomyces cerevisiae) (UniProt P38292)
T3 sequence: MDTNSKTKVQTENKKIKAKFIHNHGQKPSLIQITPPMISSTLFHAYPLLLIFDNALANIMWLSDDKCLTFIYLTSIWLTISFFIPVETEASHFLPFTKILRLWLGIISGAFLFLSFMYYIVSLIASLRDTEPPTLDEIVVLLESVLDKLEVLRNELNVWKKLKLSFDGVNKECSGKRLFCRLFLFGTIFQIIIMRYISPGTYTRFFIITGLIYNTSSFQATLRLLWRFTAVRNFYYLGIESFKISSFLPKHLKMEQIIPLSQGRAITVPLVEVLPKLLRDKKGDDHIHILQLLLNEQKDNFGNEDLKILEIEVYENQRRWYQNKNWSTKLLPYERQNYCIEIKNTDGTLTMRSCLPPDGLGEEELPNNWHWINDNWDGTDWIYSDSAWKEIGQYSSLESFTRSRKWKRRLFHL

binding [1]: binds
binding [2]: binds
binding [3]: binds
B1: Pex30 (protein, UniProt Q06169 1-523)
chain: MSGNTTNVHETRAKFAETLQPRIGGNTTKVIRAALEKNEAESGVSEDNDNGSLEKVNVATSPLLTSTPPTISKALVKLYPYLILIDEFLNVVTWTGKNIWSSVLMLCLFITTVEYFETLVKYFGHLAIIAILWGYSLLDNYIEGTLSSSPTLEDIALLMNRVSLKSDILLSPMVNLGTQDIQRLLYTTVILSPIYVMITWLLLPPRSLMLMVGMFLLTYHSPWSKVARRLLWKFKIVRLLVFYVTGLDLGGINKDQGIFATVQKQVKKLASTENSNGVLSDSKPIRFTYVLYENQRRWLGIGWKPSMLSYERTPWTDEFLNEAPSPENFHLPEETNTMVWRWVDKTWRLDMTNDGAIQVPNSKARTSADPSPDEGFIYYDNTWKKPSKEDSFSKYTRRRRWVRTAELVKTSDFDESVINSNRNSAIEQKVEENSTNGLTAEQELGSNKQEKDNAKKVGEPTTEETKEFAEASNINEGEFERISSTDEEVLKSRARDRLAKVLDDTEEKEQSNPTIGRDSKKAV

binding [2]: binds
B2: Pex30^S446A (protein, UniProt Q06169 1-523)
chain: B1 chain with S446A

binding [2]: binds
B3: Pex30^S446D (protein, UniProt Q06169 1-523)
chain: B1 chain with S446D
